Reference: PMC8214859
These are yes or no findings as the source states them, for the method shown. Binding seen in cells or lysates may run through a third protein. Some results given as binding are weak or reduced against the parent protein; the word gives no strength.

Sequences of proteins named here, by UniProt entry; tags and fusion partners are left off.
UniProt Q92734: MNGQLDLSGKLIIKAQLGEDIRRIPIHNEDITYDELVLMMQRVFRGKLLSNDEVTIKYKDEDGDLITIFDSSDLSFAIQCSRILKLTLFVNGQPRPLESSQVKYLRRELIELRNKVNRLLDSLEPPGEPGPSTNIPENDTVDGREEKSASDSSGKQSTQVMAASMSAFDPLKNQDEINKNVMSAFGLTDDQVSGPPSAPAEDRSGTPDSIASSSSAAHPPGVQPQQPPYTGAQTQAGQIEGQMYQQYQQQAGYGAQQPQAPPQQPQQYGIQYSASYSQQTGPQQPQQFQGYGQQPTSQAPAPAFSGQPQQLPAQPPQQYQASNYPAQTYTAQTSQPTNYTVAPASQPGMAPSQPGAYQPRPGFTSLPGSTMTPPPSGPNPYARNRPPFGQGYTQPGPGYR
UniProt Q00610: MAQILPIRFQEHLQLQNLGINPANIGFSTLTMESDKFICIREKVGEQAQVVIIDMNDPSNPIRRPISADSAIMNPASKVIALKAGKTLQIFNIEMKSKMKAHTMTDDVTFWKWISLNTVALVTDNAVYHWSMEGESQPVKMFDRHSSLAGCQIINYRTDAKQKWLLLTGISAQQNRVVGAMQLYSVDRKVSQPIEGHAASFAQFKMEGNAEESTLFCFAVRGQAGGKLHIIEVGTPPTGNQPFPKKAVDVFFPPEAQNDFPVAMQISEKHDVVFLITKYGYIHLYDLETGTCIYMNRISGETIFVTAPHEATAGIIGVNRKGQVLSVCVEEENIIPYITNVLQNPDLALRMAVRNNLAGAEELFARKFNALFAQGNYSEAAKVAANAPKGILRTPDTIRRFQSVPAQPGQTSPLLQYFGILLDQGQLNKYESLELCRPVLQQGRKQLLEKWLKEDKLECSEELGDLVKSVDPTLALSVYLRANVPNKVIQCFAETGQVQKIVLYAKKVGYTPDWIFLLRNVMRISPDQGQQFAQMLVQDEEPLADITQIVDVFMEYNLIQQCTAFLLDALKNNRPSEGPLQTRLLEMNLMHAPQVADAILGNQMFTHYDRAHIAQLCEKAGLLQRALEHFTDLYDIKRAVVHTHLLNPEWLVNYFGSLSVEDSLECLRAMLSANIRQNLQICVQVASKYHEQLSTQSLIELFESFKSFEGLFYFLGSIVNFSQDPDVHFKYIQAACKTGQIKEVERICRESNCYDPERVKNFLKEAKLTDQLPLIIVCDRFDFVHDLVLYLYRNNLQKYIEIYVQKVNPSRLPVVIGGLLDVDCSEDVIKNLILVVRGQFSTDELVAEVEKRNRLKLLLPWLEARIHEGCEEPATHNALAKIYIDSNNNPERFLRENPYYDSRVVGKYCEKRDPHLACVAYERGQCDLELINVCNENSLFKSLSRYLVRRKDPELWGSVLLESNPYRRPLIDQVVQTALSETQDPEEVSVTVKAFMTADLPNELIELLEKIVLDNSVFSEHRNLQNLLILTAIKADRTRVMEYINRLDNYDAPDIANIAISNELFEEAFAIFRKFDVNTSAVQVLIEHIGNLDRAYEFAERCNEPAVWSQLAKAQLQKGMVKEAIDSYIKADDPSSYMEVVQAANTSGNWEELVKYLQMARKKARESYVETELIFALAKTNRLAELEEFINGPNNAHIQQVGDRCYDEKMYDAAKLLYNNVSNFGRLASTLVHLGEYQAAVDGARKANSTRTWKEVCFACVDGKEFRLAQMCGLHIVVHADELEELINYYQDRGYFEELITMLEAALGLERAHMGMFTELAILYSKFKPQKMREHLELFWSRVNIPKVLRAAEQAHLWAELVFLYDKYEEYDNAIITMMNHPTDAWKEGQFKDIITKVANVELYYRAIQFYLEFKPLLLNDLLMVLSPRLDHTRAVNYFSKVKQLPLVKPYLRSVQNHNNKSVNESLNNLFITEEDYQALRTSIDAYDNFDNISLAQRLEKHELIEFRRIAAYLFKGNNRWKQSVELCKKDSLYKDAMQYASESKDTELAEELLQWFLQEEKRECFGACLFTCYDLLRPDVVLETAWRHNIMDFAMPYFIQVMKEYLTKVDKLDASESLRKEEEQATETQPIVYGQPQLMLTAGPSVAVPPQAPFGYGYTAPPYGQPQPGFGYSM

Target: trafficking from ER to Golgi regulator (TFG) (human (endogenous in MNNG/HOS and U2OS)) (UniProt Q92734)
Experiment: co-IP; endogenous co-IP from RIPA lysates of osteosarcoma cells with anti-CLTC or anti-TFG antibody, IgG as negative control; magnetic beads, PBS/0.1% Triton washes; Western blot

binding: binds
Substance: clathrin heavy chain (CLTC) (from UniProt Q00610 1-1675)
